Data as given in PMC5341751.
Results are given in words; binding and its absence hold for the method and conditions named. In cells and extracts the contact can be indirect. These calls come from enrichment with a bait or labelling near it, and not all partners need be listed. One block for each binder: values may come before it.

Target: CD147-GFP (human)
Experiment: affinity purification with mass spectrometry; cells incubated with 0.5 mM DSS 30 min at RT, lysed in RIPA; 500 ug lysate on GFP-nanobody beads 1 h at 4 °C; gel, LC-MS/MS; GFP control

binding: binds
B1: monocarboxylate transporter MCT4 (protein, UniProt O15427 1-465)
chain: MGGAVVDEGPTGVKAPDGGWGWAVLFGCFVITGFSYAFPKAVSVFFKELIQEFGIGYSDTAWISSILLAMLYGTGPLCSVCVNRFGCRPVMLVGGLFASLGMVAASFCRSIIQVYLTTGVITGLGLALNFQPSLIMLNRYFSKRRPMANGLAAAGSPVFLCALSPLGQLLQDRYGWRGGFLILGGLLLNCCVCAALMRPLVVTAQPGSGPPRPSRRLLDLSVFRDRGFVLYAVAASVMVLGLFVPPVFVVSYAKDLGVPDTKAAFLLTILGFIDIFARPAAGFVAGLGKVRPYSVYLFSFSMFFNGLADLAGSTAGDYGGLVVFCIFFGISYGMVGALQFEVLMAIVGTHKFSSAIGLVLLMEAVAVLVGPPSGGKLLDATHVYMYVFILAGAEVLTSSLILLLGNFFCIRKKPKEPQPEVAAAEEEKLHKPPADSGVDLREVEHFLKAEPEKNGEVVHTPETSV

binding: binds
B2: alanine/serine/cysteine transporter 2 (ASCT2) (protein, UniProt Q15758 1-541)
chain: MVADPPRDSKGLAAAEPTANGGLALASIEDQGAAAGGYCGSRDQVRRCLRANLLVLLTVVAVVAGVALGLGVSGAGGALALGPERLSAFVFPGELLLRLLRMIILPLVVCSLIGGAASLDPGALGRLGAWALLFFLVTTLLASALGVGLALALQPGAASAAINASVGAAGSAENAPSKEVLDSFLDLARNIFPSNLVSAAFRSYSTTYEERNITGTRVKVPVGQEVEGMNILGLVVFAIVFGVALRKLGPEGELLIRFFNSFNEATMVLVSWIMWYAPVGIMFLVAGKIVEMEDVGLLFARLGKYILCCLLGHAIHGLLVLPLIYFLFTRKNPYRFLWGIVTPLATAFGTSSSSATLPLMMKCVEENNGVAKHISRFILPIGATVNMDGAALFQCVAAVFIAQLSQQSLDFVKIITILVTATASSVGAAGIPAGGVLTLAIILEAVNLPVDHISLILAVDWLVDRSCTVLNVEGDALGAGLLQNYVDRTESRSTEPELIQVKSELPLDPLPVPTEEGNPLLKHYRGPAGDATVASEKESVM
